Publication PMC4591343
No constants are given. Whether binding was seen depends on the method and setting. In cells and extracts the contact can be indirect. Some results given as binding are weak or reduced against the parent protein; the word gives no strength.

Chains of the proteins cited; added tags and fusions are not shown. Lines headed by an entry give the natural chain unless they say otherwise; changes in a name come on top.
UniProt O75838: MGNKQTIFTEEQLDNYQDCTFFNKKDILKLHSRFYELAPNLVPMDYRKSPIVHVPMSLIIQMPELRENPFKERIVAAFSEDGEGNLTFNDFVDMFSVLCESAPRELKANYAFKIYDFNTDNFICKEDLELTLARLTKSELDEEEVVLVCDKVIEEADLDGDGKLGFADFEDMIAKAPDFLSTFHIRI

Target: CIB2^R186W-GFP (human calcium and integrin binding protein 2 with p.Arg186Trp, GFP-tagged) (human) (UniProt O75838)
Assay: co-IP; HEK 293 cells transfected with both constructs; lysed by sonication in RIPA buffer; antibody to GFP on Protein A-Sepharose CL-4B beads, overnight at 4°C; western blot with antibodies against GFP and DsRed

- binding: binds
B1: Dsred-Whirlin (protein, UniProt Q9P202 1-907)
chain: MNAPLDGLSVSSSSTGSLGSAAGAGGGGGAGLRLLSANVRQLHQALTALLSEAEREQFTHCLNAYHARRNVFDLVRTLRVLLDSPVKRRLLPMLRLVIPRSDQLLFDQYTAEGLYLPATTPYRQPAWGGPDSAGPGEVRLVSLRRAKAHEGLGFSIRGGSEHGVGIYVSLVEPGSLAEKEGLRVGDQILRVNDKSLARVTHAEAVKALKGSKKLVLSVYSAGRIPGGYVTNHIYTWVDPQGRSISPPSGLPQPHGGALRQQEGDRRSTLHLLQGGDEKKVNLVLGDGRSLGLTIRGGAEYGLGIYITGVDPGSEAEGSGLKVGDQILEVNGRSFLNILHDEAVRLLKSSRHLILTVKDVGRLPHARTTVDETKWIASSRIRETMANSAGFLGDLTTEGINKPGFYKGPAGSQVTLSSLGNQTRVLLEEQARHLLNEQEHATMAYYLDEYRGGSVSVEALVMALFKLLNTHAKFSLLSEVRGTISPQDLERFDHLVLRREIESMKARQPPGPGAGDTYSMVSYSDTGSSTGSHGTSTTVSSARNTLDLEETGEAVQGNINALPDVSVDDVRSTSQGLSSFKPLPRPPPLAQGNDLPLGQPRKLGREDLQPPSSMPSCSGTVFSAPQNRSPPAGTAPTPGTSSAQDLPSSPIYASVSPANPSSKRPLDAHLALVNQHPIGPFPRVQSPPHLKSPSAEATVAGGCLLPPSPSGHPDQTGTNQHFVMVEVHRPDSEPDVNEVRALPQTRTASTLSQLSDSGQTLSEDSGVDAGEAEASAPGRGRQSVSTKSRSSKELPRNERPTDGANKPPGLLEPTSTLVRVKKSAATLGIAIEGGANTRQPLPRIVTIQRGGSAHNCGQLKVGHVILEVNGLTLRGKEHREAARIIAEAFKTKDRDYIDFLVTEFNVML
